Measurements taken from the supplement of paper PMC12823440, “Inhibitors supercharge kinase turnover through native proteolytic circuits” (Nature, 2025).
Counter-ions that a name gives are not always drawn. This is one part of the list. The calls rarely recur for the same compound in another form.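 Kinases, fused to nanoluciferase, were expressed in K562 cells; luminescence was measured every 4 h from 2 to 18 h as percent of control (DMSO = 100%, positive control = 0%). A time point is decreased if signal falls significantly (2 sigma). Hits were called by the authors by a rule that is not shown; the count of time points alone does not decide it.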

Amino acid sequences for entries named in this document (tags omitted).
UniProt P29317, whole entry: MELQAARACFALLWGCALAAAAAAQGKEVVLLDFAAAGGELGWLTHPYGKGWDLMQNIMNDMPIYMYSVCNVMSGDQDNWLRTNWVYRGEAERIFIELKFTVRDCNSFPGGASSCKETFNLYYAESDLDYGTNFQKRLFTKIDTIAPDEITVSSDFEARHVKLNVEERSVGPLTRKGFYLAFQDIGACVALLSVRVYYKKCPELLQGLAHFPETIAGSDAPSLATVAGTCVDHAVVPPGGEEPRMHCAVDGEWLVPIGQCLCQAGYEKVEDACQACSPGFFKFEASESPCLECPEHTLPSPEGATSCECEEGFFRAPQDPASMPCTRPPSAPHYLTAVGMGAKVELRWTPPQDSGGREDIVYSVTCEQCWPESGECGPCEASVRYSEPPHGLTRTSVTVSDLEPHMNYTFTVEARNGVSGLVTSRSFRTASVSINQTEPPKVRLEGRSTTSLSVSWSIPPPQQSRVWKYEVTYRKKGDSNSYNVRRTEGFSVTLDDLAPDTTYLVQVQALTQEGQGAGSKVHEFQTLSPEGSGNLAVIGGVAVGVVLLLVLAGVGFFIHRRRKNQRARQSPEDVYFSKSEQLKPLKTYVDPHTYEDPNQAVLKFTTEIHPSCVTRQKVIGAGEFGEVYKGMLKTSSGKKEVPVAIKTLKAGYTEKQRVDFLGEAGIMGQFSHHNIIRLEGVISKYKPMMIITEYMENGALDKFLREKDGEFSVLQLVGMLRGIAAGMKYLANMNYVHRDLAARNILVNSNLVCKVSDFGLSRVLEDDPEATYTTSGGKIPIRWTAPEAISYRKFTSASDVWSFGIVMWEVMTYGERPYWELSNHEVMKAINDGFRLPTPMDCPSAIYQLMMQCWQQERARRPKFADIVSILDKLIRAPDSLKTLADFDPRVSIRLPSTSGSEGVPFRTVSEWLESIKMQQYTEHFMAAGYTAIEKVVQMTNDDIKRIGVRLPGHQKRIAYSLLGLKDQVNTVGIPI

Target: EGFR_L858R (UniProt P00533)
Test: kinase-Nluc reporter destabilization hit call (1 = scored as downregulated) (binary); higher = compound decreases kinase abundance
Details: 2.5 µM; K562; 2-18 h

Row | SMILES | kinase-Nluc reporter destabilization hit call
1 | Cc1cn(-c2cc(NC(=O)c3ccc(C)c(Nc4nccc(-c5cccnc5)n4)c3)cc(C(F)(F)F)c2)cn1 [Nilotinib] | inactive: 0
2 | COc1cc(Nc2c(C#N)cnc3cc(OCCCN4CCN(C)CC4)c(OC)cc23)c(Cl)cc1Cl [Bosutinib] | inactive: 0
3 | CCc1cc2c(cc1-c1cnn(CC(=O)N(C)C)c1)C(C)(C)c1[nH]c3cc(C#N)ccc3c1C2=O | inactive: 0
4 | COc1cc(N2CCC(N3CCN(C)CC3)CC2)ccc1Nc1ncc(Cl)c(Nc2ccccc2S(=O)(=O)C(C)C)n1 | inactive: 0

Same assay, conditions: 10 µM; K562; 2-18 h

Row | SMILES | kinase-Nluc reporter destabilization hit call
5 | C[C@@]1(C(=O)Nc2ccc(F)nc2)CCCN1c1nc(Nc2cc(C3CC3)n[nH]2)c2cccn2n1 | inactive: 0
6 | Cc1ccc(-n2nc(C(C)(C)C)cc2NC(=O)Nc2ccc(OCCN3CCOCC3)c3ccccc23)cc1 [Doramapimod] | inactive: 0
7 | O=C(O)c1ccc(Nc2ncc3c(n2)-c2ccc(Cl)cc2C(c2c(F)cccc2F)=NC3)cc1 | inactive: 0
8 | O=C(NCCCNc1nc(Nc2cccc(CN3CCOCC3)c2)ncc1C1CC1)C1CCC1 | inactive: 0

Target: EGFR_L861Q (UniProt P00533)
Test: as above
Details: 2.5 µM; K562; 2-18 h

Row | SMILES | kinase-Nluc reporter destabilization hit call
9 | Cc1cn(-c2cc(NC(=O)c3ccc(C)c(Nc4nccc(-c5cccnc5)n4)c3)cc(C(F)(F)F)c2)cn1 [Nilotinib] | inactive: 0
10 | COc1cc(Nc2c(C#N)cnc3cc(OCCCN4CCN(C)CC4)c(OC)cc23)c(Cl)cc1Cl [Bosutinib] | inactive: 0
11 | CCc1cc2c(cc1-c1cnn(CC(=O)N(C)C)c1)C(C)(C)c1[nH]c3cc(C#N)ccc3c1C2=O | inactive: 0
12 | COc1cc(N2CCC(N3CCN(C)CC3)CC2)ccc1Nc1ncc(Cl)c(Nc2ccccc2S(=O)(=O)C(C)C)n1 | inactive: 0

Same assay, conditions: 10 µM; K562; 2-18 h

Row | SMILES | kinase-Nluc reporter destabilization hit call
13 | C[C@@]1(C(=O)Nc2ccc(F)nc2)CCCN1c1nc(Nc2cc(C3CC3)n[nH]2)c2cccn2n1 | inactive: 0
14 | Cc1ccc(-n2nc(C(C)(C)C)cc2NC(=O)Nc2ccc(OCCN3CCOCC3)c3ccccc23)cc1 [Doramapimod] | inactive: 0
15 | O=C(O)c1ccc(Nc2ncc3c(n2)-c2ccc(Cl)cc2C(c2c(F)cccc2F)=NC3)cc1 | inactive: 0
16 | O=C(NCCCNc1nc(Nc2cccc(CN3CCOCC3)c2)ncc1C1CC1)C1CCC1 | inactive: 0

Target: EGFR_T790M (UniProt P00533)
Test: as above
Details: 2.5 µM; K562; 2-18 h

Row | SMILES | kinase-Nluc reporter destabilization hit call
17 | Cc1cn(-c2cc(NC(=O)c3ccc(C)c(Nc4nccc(-c5cccnc5)n4)c3)cc(C(F)(F)F)c2)cn1 [Nilotinib] | inactive: 0
18 | COc1cc(Nc2c(C#N)cnc3cc(OCCCN4CCN(C)CC4)c(OC)cc23)c(Cl)cc1Cl [Bosutinib] | inactive: 0
19 | CCc1cc2c(cc1-c1cnn(CC(=O)N(C)C)c1)C(C)(C)c1[nH]c3cc(C#N)ccc3c1C2=O | inactive: 0
20 | COc1cc(N2CCC(N3CCN(C)CC3)CC2)ccc1Nc1ncc(Cl)c(Nc2ccccc2S(=O)(=O)C(C)C)n1 | inactive: 0

Same assay, conditions: 10 µM; K562; 2-18 h

Row | SMILES | kinase-Nluc reporter destabilization hit call
21 | C[C@@]1(C(=O)Nc2ccc(F)nc2)CCCN1c1nc(Nc2cc(C3CC3)n[nH]2)c2cccn2n1 | inactive: 0
22 | Cc1ccc(-n2nc(C(C)(C)C)cc2NC(=O)Nc2ccc(OCCN3CCOCC3)c3ccccc23)cc1 [Doramapimod] | inactive: 0
23 | O=C(O)c1ccc(Nc2ncc3c(n2)-c2ccc(Cl)cc2C(c2c(F)cccc2F)=NC3)cc1 | inactive: 0
24 | O=C(NCCCNc1nc(Nc2cccc(CN3CCOCC3)c2)ncc1C1CC1)C1CCC1 | inactive: 0

Target: EPHA2 (UniProt P29317)
Test: as above
Details: 2.5 µM; K562; 2-18 h

Row | SMILES | kinase-Nluc reporter destabilization hit call
25 | CC1(C)CNc2cc(NC(=O)c3cccnc3NCc3ccncc3)ccc21 [Motesanib] | inactive: 0
26 | CC(C)n1nc(-c2cc3cc(O)ccc3[nH]2)c2c(N)ncnc21 [Torkinib] | inactive: 0
27 | CCN(CC)CCNC(=O)c1c(C)[nH]c(/C=C2\C(=O)Nc3ccc(F)cc32)c1C [Sunitinib] | inactive: 0
28 | COc1ccc(CNC(=O)Nc2ncc([N+](=O)[O-])s2)cc1 | inactive: 0
29 | Cc1cc(Nc2cc(N3CCN(C)CC3)nc(/C=C/c3ccccc3)n2)n[nH]1 | inactive: 0
30 | Cc1cc(Nc2cc(N3CCN(C)CC3)nc(/C=C/c3ccccc3)n2)n[nH]1 [ENMD-2076 (Tartrate)] | inactive: 0
31 | NC(=O)c1c(OCc2c(F)cc(Br)cc2F)nsc1NC(=O)NCCCCN1CCCC1 | inactive: 0
32 | O=C(c1ccc(/C=C/c2n[nH]c3ccccc23)cc1)N1CCNCC1 | inactive: 0
33 | C=CC(=O)Nc1cc2c(Nc3ccc(F)c(Cl)c3)ncnc2cc1OCCCN1CCOCC1 [Canertinib (dihydrochloride)] | inactive: 0
34 | COc1cc2/c(=N/c3ccc(Br)cc3F)nc[nH]c2cc1OCC1CCN(C)CC1 [Vandetanib] | inactive: 0
35 | Nc1ncnc2c1c(-c1cnc3[nH]ccc3c1)nn2C1CCCC1 | inactive: 0
36 | CC1(C)CNc2cc(NC(=O)c3cccnc3NCc3ccncc3)ccc21 [Motesanib (Diphosphate)] | inactive: 0
37 | CCOc1cc2ncc(C#N)c(Nc3ccc(F)c(Cl)c3)c2cc1NC(=O)/C=C/CN(C)C [Pelitinib] | active: 1
38 | CNC(=O)c1cc(Oc2ccc(NC(=O)Nc3ccc(Cl)c(C(F)(F)F)c3)cc2)ccn1 [Sorafenib] | inactive: 0
39 | Cc1cn(-c2cc(NC(=O)c3ccc(C)c(Nc4nccc(-c5cccnc5)n4)c3)cc(C(F)(F)F)c2)cn1 [Nilotinib] | inactive: 0
40 | CCc1cc2c(cc1-c1cnn(CC(=O)N(C)C)c1)C(C)(C)c1[nH]c3cc(C#N)ccc3c1C2=O | inactive: 0
41 | CN1CCN(c2nc(C3=C(c4c[nH]c5ccccc45)C(=O)NC3=O)c3ccccc3n2)CC1 [Sotrastaurin] | inactive: 0
42 | O=C1NCCc2[nH]c(-c3ccncc3)cc21 | inactive: 0
43 | COc1cc(N2CCC(N3CCN(C)CC3)CC2)ccc1Nc1ncc(Cl)c(Nc2ccccc2S(=O)(=O)C(C)C)n1 | inactive: 0
